# These are yes or no findings as the source states them, for the method shown. For some assays here: Binding seen in cells or lysates may run through a third protein. For some assays here: Binding can be weak; no strength is given. Sequences can lack the tags named with a protein.
# Assays:
# JNK = assay: anti-FLAG co-immunoprecipitation from KSR-2-FLAG-transfected 293T lysate, Western blot
# P.ERK = assay: as above
# P.JNK = assay: as above
# P.Raf = assay: as above
# ERK = assay: anti-FLAG immunoprecipitation from KSR-2-FLAG-transfected 293T lysate (about 1 mg protein), Western blot with commercial antibodies
binder,measurement,setting,value
hKSR-2-FLAG (full-length human KSR-2 with the FLAG epitope at its carboxyl terminus) (protein) MTDEQVCETVEKYGANREECARLNASLSCLRNVHMSGGNLSKQDWTIQWPTTETGKENNPVCPPEPTPWIRTHLSQSPRVPSKCVQHYCHTSPTPGAPVYTHVDRLTVDAYPGLCPPPPLESGHRSLPPSPRQRHAVRTPPRTPNIVTTVTPPGTPPMRKKNKLKPPGTPPPSSRKLIHLIPGFTALHRSKSHEFQLGHRVDEAHTPKAKKKSKPLNLKIHSSVGSCENIPSQQRSPLLSERSLRSFFVGHAPFLPSTPPVHTEANFSANTLSVPRWSPQIPRRDLGNSIKHRFSTKYWMSQTCTVCGKGMLFGLKCKNCKLKCHNKCTKEAPPCHLLIIHRGDPARLVRTESVPCDINNPLRKPPRYSDLHISQTLPKTNKINKDHIPVPYQPDSSSNPSSTTSSTPSSPAPPLPPSATPPSPLHPSPQCTRQQKNFNLPASHYYKYKQQFIFPDVVPVPETPTRAPQVILHPVTSNPILEGNPLLQIEVEPTSENEEVHDEAEESEDDFEEMNLSLLSARSFPRKASQTSIFLQEWDIPFEQLEIGELIGKGRFGQVYHGRWHGEVAIRLIDIERDNEDQLKAFKREVMAYRQTRHENVVLFMGACMSPPHLAIITSLCKGRTLYSVVRDAKIVLDVNKTRQIAQEIVKGMGYLHAKGILHKDLKSKNVFYDNGKVVITDFGLFSISGVLQAGRREDKLRIQNGWLCHLAPEIIRQLSPDTEEDKLPFSKHSDVFALGTIWYELHAREWPFKTQPAEAIIWQMGTGMKPNLSQIGMGKEISDILLFCWAFEQEERPTFTKLMDMLEKLPKRNRRLSHPGHFWKSAELDYKDDDDK,binding,JNK,binds
same,binding,P.ERK,binds
same,binding,P.JNK,binds
same,binding,P.Raf,binds
same,binding,ERK,no binding

# Reference: patent US20040265961A1 (published 2004)
